Test results published in publication PMC13393275.
Results are given in words; binding and its absence hold for the method and conditions named. Binding seen in cells or lysates may run through a third protein. Here binding means that the protein was enriched with, or labelled near, the bait; the list need not be complete.

The chains behind the UniProt entries cited, without tags or fusion partners. Residues count along the entry.
UniProt O00487: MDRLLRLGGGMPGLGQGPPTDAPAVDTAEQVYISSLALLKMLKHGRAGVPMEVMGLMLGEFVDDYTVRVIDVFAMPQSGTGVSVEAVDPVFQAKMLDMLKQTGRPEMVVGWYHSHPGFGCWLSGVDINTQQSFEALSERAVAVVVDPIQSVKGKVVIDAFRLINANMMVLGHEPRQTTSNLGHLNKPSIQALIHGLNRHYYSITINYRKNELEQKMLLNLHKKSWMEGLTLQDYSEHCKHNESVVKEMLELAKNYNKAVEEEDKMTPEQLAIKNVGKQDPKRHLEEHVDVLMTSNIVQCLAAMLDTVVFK
UniProt Q8IZ07: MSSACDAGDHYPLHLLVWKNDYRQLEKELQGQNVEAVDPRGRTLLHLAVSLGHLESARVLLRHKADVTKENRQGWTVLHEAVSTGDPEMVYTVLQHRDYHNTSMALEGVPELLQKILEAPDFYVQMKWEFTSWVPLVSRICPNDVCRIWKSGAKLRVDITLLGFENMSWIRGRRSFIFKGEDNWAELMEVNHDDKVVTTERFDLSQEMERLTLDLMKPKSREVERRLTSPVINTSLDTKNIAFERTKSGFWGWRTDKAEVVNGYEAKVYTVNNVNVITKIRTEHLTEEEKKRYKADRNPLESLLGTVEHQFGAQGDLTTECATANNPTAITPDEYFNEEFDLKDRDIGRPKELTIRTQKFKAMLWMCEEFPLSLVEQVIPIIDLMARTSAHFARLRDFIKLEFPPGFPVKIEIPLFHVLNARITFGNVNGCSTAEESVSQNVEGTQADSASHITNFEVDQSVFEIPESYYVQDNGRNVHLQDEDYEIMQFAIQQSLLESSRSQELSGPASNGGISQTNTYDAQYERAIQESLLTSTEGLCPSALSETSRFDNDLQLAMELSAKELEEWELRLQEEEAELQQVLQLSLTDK
UniProt P11362, residues 22-822: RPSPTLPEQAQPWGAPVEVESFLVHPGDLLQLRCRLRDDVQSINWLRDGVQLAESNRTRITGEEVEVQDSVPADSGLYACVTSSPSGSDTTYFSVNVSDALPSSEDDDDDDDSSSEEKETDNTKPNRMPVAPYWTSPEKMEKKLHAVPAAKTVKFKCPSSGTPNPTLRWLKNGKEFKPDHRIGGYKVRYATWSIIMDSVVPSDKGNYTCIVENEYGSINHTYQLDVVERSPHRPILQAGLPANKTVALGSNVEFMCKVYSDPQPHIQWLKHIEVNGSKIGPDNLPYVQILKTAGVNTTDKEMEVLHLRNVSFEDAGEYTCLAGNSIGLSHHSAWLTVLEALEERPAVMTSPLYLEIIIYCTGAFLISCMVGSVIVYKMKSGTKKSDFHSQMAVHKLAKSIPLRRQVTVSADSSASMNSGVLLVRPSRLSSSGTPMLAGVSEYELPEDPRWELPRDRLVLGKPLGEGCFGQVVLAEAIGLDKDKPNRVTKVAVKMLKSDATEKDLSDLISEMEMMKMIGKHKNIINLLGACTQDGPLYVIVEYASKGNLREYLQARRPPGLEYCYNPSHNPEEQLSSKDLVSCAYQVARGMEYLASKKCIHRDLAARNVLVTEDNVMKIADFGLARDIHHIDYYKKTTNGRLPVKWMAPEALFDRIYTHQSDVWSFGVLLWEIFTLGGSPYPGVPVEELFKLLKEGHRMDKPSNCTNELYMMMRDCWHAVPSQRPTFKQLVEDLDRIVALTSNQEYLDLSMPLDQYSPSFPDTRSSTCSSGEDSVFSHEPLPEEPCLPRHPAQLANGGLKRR
UniProt P22607, residues 23-806: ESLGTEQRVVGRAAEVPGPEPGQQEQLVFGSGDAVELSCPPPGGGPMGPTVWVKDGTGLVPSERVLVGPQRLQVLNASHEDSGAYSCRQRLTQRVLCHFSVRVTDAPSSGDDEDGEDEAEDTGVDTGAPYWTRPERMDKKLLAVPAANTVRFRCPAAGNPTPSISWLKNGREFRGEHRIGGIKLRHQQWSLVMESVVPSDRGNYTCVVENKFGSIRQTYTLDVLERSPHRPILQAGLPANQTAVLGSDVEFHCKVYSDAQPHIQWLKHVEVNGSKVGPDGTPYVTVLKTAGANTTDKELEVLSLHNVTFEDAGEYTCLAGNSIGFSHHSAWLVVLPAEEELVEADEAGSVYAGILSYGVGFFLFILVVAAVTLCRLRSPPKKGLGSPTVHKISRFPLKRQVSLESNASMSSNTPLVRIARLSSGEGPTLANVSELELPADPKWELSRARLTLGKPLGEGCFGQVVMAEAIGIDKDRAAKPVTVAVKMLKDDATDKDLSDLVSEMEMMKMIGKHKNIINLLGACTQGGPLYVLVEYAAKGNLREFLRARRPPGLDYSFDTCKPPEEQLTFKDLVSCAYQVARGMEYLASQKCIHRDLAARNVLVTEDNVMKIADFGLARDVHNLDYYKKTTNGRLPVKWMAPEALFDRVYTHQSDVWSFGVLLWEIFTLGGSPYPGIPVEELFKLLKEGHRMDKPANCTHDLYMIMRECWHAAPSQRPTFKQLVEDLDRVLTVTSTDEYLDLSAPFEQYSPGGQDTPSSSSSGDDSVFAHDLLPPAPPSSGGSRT
UniProt Q92615: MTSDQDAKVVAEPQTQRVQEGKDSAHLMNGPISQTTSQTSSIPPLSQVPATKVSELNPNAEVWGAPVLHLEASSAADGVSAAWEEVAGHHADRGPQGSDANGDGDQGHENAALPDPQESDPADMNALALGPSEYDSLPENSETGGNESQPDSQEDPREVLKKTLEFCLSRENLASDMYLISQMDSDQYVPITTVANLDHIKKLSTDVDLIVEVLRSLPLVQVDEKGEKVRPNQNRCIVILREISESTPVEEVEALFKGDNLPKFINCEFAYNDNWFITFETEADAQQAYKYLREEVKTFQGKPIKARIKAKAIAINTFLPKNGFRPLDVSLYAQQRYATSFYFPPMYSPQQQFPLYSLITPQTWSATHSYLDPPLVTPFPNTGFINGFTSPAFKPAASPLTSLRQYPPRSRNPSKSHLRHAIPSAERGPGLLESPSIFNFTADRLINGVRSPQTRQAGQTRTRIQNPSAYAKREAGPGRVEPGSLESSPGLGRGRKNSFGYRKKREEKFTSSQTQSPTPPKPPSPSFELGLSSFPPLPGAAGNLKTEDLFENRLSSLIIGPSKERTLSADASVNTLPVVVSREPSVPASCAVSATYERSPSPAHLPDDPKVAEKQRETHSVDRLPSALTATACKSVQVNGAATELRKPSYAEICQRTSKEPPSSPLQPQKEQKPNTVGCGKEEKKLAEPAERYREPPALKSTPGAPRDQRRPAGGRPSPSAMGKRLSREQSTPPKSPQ
UniProt Q9Y605: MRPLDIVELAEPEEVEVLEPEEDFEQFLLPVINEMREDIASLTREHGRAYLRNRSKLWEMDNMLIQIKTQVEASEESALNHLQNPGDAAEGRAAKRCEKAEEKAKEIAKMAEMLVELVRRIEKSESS
UniProt Q08AE8: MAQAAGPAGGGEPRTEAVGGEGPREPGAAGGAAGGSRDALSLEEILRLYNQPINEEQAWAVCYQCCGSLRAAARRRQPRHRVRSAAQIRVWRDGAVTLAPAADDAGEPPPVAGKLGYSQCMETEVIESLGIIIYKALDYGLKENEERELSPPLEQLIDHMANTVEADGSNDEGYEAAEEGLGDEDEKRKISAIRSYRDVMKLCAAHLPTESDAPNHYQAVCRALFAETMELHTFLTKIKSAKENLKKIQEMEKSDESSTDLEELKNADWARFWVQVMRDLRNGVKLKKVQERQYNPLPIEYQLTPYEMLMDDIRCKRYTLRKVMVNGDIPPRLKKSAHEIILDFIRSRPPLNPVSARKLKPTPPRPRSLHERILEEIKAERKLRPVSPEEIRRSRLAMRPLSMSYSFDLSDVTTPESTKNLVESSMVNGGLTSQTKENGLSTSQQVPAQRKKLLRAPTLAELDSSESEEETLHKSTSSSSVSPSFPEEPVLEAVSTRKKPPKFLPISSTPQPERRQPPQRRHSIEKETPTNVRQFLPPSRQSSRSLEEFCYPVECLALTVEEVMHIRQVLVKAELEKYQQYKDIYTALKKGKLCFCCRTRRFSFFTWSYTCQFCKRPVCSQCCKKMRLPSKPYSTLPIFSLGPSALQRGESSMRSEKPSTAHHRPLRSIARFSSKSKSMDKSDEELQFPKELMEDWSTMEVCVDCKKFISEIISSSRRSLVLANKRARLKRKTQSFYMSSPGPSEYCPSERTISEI
UniProt P51116: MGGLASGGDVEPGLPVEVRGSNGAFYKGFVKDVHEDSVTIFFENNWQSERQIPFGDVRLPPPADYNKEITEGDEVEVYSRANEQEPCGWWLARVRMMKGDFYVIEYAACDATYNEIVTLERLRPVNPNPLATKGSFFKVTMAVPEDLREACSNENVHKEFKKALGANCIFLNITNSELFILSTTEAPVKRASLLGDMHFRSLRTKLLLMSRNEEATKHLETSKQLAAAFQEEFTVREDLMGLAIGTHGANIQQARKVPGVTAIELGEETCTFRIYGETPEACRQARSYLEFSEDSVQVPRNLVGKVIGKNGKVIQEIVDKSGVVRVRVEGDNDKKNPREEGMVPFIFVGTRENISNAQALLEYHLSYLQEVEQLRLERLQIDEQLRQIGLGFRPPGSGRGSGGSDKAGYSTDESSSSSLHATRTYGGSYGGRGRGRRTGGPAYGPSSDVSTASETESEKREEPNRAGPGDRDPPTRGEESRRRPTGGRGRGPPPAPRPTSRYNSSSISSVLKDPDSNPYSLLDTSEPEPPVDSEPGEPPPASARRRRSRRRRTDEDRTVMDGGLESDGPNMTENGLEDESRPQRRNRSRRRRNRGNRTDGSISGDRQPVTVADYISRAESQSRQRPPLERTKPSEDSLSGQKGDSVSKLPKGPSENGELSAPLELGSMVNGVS
UniProt P61764: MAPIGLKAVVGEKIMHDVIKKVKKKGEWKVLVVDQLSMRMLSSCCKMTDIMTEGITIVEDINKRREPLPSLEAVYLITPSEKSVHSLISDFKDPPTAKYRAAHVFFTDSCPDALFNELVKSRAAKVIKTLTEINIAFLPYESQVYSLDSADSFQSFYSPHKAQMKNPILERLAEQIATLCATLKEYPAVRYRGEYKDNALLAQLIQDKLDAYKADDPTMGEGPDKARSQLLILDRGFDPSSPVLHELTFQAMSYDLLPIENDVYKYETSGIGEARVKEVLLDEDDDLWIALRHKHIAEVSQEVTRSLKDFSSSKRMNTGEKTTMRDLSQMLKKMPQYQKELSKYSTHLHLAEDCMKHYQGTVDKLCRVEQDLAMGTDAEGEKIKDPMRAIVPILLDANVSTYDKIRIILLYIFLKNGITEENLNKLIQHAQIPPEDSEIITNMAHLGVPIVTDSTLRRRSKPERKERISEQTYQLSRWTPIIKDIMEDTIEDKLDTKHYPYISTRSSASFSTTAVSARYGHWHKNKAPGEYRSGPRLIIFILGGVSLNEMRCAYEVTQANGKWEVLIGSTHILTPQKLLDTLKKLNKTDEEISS
UniProt P49770: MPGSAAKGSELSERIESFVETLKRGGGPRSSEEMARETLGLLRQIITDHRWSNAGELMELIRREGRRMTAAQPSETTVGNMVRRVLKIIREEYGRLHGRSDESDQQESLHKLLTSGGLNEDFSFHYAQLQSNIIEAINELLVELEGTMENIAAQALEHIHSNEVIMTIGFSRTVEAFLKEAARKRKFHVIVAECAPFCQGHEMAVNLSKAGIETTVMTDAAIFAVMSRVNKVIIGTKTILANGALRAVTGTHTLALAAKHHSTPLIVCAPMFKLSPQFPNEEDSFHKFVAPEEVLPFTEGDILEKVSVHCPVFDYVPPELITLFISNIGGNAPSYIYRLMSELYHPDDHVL
UniProt Q9UI10: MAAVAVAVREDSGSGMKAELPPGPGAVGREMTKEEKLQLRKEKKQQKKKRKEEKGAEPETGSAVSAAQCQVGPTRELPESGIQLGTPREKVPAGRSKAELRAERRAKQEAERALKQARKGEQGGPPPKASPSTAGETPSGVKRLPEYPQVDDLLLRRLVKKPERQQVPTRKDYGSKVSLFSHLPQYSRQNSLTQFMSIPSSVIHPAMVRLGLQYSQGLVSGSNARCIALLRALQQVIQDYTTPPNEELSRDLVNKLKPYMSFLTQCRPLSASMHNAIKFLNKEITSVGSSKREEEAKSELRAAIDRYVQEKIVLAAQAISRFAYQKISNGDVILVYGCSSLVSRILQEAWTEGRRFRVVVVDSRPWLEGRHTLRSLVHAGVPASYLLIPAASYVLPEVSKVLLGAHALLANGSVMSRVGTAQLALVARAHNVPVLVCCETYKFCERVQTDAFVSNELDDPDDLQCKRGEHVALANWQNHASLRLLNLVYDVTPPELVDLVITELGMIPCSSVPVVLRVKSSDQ

T1: FRS2-mNeonGreen (human) (UniProt Q8WU20)
T1 sequence: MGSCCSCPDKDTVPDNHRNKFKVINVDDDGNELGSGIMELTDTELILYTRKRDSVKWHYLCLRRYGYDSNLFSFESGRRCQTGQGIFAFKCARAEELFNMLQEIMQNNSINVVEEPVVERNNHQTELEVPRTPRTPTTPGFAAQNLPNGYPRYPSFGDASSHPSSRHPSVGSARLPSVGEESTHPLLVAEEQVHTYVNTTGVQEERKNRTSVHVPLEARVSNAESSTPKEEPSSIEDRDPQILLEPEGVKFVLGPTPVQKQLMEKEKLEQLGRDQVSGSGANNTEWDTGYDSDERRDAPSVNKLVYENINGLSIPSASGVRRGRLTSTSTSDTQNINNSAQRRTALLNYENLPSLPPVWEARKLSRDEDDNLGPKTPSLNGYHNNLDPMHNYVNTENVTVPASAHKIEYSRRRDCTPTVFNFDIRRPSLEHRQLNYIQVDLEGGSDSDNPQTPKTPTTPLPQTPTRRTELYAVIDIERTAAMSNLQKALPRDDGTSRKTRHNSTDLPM

B1: Translation initiation factor eIF-2B subunit alpha (protein, UniProt Q14232 1-305)
chain: MDDKELIEYFKSQMKEDPDMASAVAAIRTLLEFLKRDKGETIQGLRANLTSAIETLCGVDSSVAVSSGGELFLRFISLASLEYSDYSKCKKIMIERGELFLRRISLSRNKIADLCHTFIKDGATILTHAYSRVVLRVLEAAVAAKKRFSVYVTESQPDLSGKKMAKALCHLNVPVTVVLDAAVGYIMEKADLVIVGAEGVVENGGIINKIGTNQMAVCAKAQNKPFYVVAESFKFVRLFPLNQQDVPDKFKYKADTLKVAQTGQDLKEEHPWVDYTAPSLITLLFTDLGVLTPSAVSDELIKLYL
B2: HAUS augmin-like complex subunit 5 (protein, UniProt O94927 1-633)
chain: MELAQEARELGCWAVEEMGVPVAARAPESTLRRLCLGQGADIWAYILQHVHSQRTVKKIRGNLLWYGHQDSPQVRRKLELEAAVTRLRAEIQELDQSLELMERDTEAQDTAMEQARQHTQDTQRRALLLRAQAGAMRRQQHTLRDPMQRLQNQLRRLQDMERKAKVDVTFGSLTSAALGLEPVVLRDVRTACTLRAQFLQNLLLPQAKRGSLPTPHDDHFGTSYQQWLSSVETLLTNHPPGHVLAALEHLAAEREAEIRSLCSGDGLGDTEISRPQAPDQSDSSQTLPSMVHLIQEGWRTVGVLVSQRSTLLKERQVLTQRLQGLVEEVERRVLGSSERQVLILGLRRCCLWTELKALHDQSQELQDAAGHRQLLLRELQAKQQRILHWRQLVEETQEQVRLLIKGNSASKTRLCRSPGEVLALVQRKVVPTFEAVAPQSRELLRCLEEEVRHLPHILLGTLLRHRPGELKPLPTVLPSIHQLHPASPRGSSFIALSHKLGLPPGKASELLLPAAASLRQDLLLLQDQRSLWCWDLLHMKTSLPPGLPTQELLQIQASQEKQQKENLGQALKRLEKLLKQALERIPELQGIVGDWWEQPGQAALSEELCQGLSLPQWRLRWVQAQGALQKLCS
B3: Serine/threonine-protein kinase RIO3 (protein, UniProt O14730 1-519)
chain: MDLVGVASPEPGTAAAWGPSKCPWAIPQNTISCSLADVMSEQLAKELQLEEEAAVFPEVAVAEGPFITGENIDTSSDLMLAQMLQMEYDREYDAQLRREEKKFNGDSKVSISFENYRKVHPYEDSDSSEDEVDWQDTRDDPYRPAKPVPTPKKGFIGKGKDITTKHDEVVCGRKNTARMENFAPEFQVGDGIGMDLKLSNHVFNALKQHAYSEERRSARLHEKKEHSTAEKAVDPKTRLLMYKMVNSGMLETITGCISTGKESVVFHAYGGSMEDEKEDSKVIPTECAIKVFKTTLNEFKNRDKYIKDDFRFKDRFSKLNPRKIIRMWAEKEMHNLARMQRAGIPCPTVVLLKKHILVMSFIGHDQVPAPKLKEVKLNSEEMKEAYYQTLHLMRQLYHECTLVHADLSEYNMLWHAGKVWLIDVSQSVEPTHPHGLEFLFRDCRNVSQFFQKGGVKEALSERELFNAVSGLNITADNEADFLAEIEALEKMNEDHVQKNGRKAASFLKDDGDPPLLYDE
B4: AF4/FMR2 family member 1 (protein, UniProt P51825 1-1210)
chain: MAAQSSLYNDDRNLLRIREKERRNQEAHQEKEAFPEKIPLFGEPYKTAKGDELSSRIQNMLGNYEEVKEFLSTKSHTHRLDASENRLGKPKYPLIPDKGSSIPSSSFHTSVHHQSIHTPASGPLSVGNISHNPKMAQPRTEPMPSLHAKSCGPPDSQHLTQDRLGQEGFGSSHHKKGDRRADGDHCASVTDSAPERELSPLISLPSPVPPLSPIHSNQQTLPRTQGSSKVHGSSNNSKGYCPAKSPKDLAVKVHDKETPQDSLVAPAQPPSQTFPPPSLPSKSVAMQQKPTAYVRPMDGQDQAPSESPELKPLPEDYRQQTFEKTDLKVPAKAKLTKLKMPSQSVEQTYSNEVHCVEEILKEMTHSWPPPLTAIHTPSTAEPSKFPFPTKDSQHVSSVTQNQKQYDTSSKTHSNSQQGTSSMLEDDLQLSDSEDSDSEQTPEKPPSSSAPPSAPQSLPEPVASAHSSSAESESTSDSDSSSDSESESSSSDSEENEPLETPAPEPEPPTTNKWQLDNWLTKVSQPAAPPEGPRSTEPPRRHPESKGSSDSATSQEHSESKDPPPKSSSKAPRAPPEAPHPGKRSCQKSPAQQEPPQRQTVGTKQPKKPVKASARAGSRTSLQGEREPGLLPYGSRDQTSKDKPKVKTKGRPRAAASNEPKPAVPPSSEKKKHKSSLPAPSKALSGPEPAKDNVEDRTPEHFALVPLTESQGPPHSGSGSRTSGCRQAVVVQEDSRKDRLPLPLRDTKLLSPLRDTPPPQSLMVKITLDLLSRIPQPPGKGSRQRKAEDKQPPAGKKHSSEKRSSDSSSKLAKKRKGEAERDCDNKKIRLEKEIKSQSSSSSSSHKESSKTKPSRPSSQSSKKEMLPPPPVSSSSQKPAKPALKRSRREADTCGQDPPKSASSTKSNHKDSSIPKQRRVEGKGSRSSSEHKGSSGDTANPFPVPSLPNGNSKPGKPQVKFDKQQADLHMREAKKMKQKAELMTDRVGKAFKYLEAVLSFIECGIATESESQSSKSAYSVYSETVDLIKFIMSLKSFSDATAPTQEKIFAVLCMRCQSILNMAMFRCKKDIAIKYSRTLNKHFESSSKVAQAPSPCIASTGTPSPLSPMPSPASSVGSQSSAGSVGSSGVAATISTPVTIQNMTSSYVTITSHVLTAFDLWEQAEALTRKNKEFFARLSTNVCTLALNSSLVDLVHYTRQGFQQLQELTKTP
B5: Rho-related GTP-binding protein RhoE (protein, UniProt P61587 1-244)
chain: MKERRASQKLSSKSIMDPNQNVKCKIVVVGDSQCGKTALLHVFAKDCFPENYVPTVFENYTASFEIDTQRIELSLWDTSGSPYYDNVRPLSYPDSDAVLICFDISRPETLDSVLKKWKGEIQEFCPNTKMLLVGCKSDLRTDVSTLVELSNHRQTPVSYDQGANMAKQIGAATYIECSALQSENSVRDIFHVATLACVNKTNKNVKRNKSQRATKRISHMPSRPELSAVATDLRKDKAKSCTVM

Biological target: T1, FRS2-mNeonGreen (human)
Assay: affinity purification with mass spectrometry; mNeonGreen-Trap IP from bFGF-stimulated (50 ng/mL, 5 min) UW228 FRS2-mNG cells against UW228 WT; on-bead digestion, DIA LC-MS/MS, SAINTexpress; hits log2FC >= 1 and bFDR <= 0.05; n = 3

| binding | Molecule |
| --- | --- |
| binds | 26S proteasome non-ATPase regulatory subunit 14 (from UniProt O00487 1-310) |
| binds | A-kinase anchor protein 2 (from UniProt Q9Y2D5-3) |
| binds | Ankyrin repeat domain-containing protein 13A (from UniProt Q8IZ07 1-590) |
| binds | Condensin complex subunit 1 (from UniProt Q15021 1-1401) |
| binds | Fibroblast growth factor receptor 1 (from UniProt P11362 22-822) |
| binds | Fibroblast growth factor receptor 2 (from UniProt P21802 22-821) |
| binds | Fibroblast growth factor receptor 3 (from UniProt P22607 23-806) |
| binds | La-related protein 4B (from UniProt Q92615 1-738) |
| binds | MORF4 family-associated protein 1 (from UniProt Q9Y605 1-127) |
| binds | Protein spire homolog 1 (from UniProt Q08AE8 1-756) |
| binds | RNA-binding protein FXR2 (from UniProt P51116 1-673) |
| binds | Son of sevenless homolog 1 (from UniProt Q07889 1-1333) |
| binds | Son of sevenless homolog 2 (from UniProt Q07890 1-1332) |
| binds | Syntaxin-binding protein 1 (from UniProt P61764 1-594) |
| binds | Translation initiation factor eIF-2B subunit beta (from UniProt P49770 1-351) |
| binds | Translation initiation factor eIF-2B subunit delta (from UniProt Q9UI10 1-523) |
| binds | Tyrosine-protein phosphatase non-receptor type 11 (from UniProt Q06124 1-593) |
| binds | B1 |
| binds | B2 |
| binds | B3 |
| binds | B4 |
| binds | B5 |
